Results as given in publication PMC11997057, “PIN1-SUMO2/3 motif suppresses excessive RNF168 chromatin accumulation and ubiquitin signaling to promote IR resistance” (Nature Communications, 2025).
No constants are given. Whether binding was seen depends on the method and setting. In cells and extracts the contact can be indirect. Some results given as binding are weak or reduced against the parent protein; the word gives no strength.

Target: GFP-WT-RNF168 (UniProt Q8IYW5)
Test: co-IP; GFP-Trap agarose beads, 3-5 mg cleared lysate in NETN lysis buffer (150 mM NaCl, 50 mM Tris-HCl pH 7.5, 2 mM MgCl2, 1% NP-40, Benzonase) at 4 C for 5 h; western blot

With “p97/VCP (from UniProt P55072 1-806) (enzyme)” the binding was “binds”.
